According to publication PMC6925144, “A prospective compound screening contest identified broader inhibitors for Sirtuin 1” (Scientific Reports, 2019):
Over roughly 3,200 compounds, “TSA(without NAD+) / Primary screening (TSA) / delta Tm (K)” has its median near -0.07; the highest 2% begin near 0.37. The list shows a part of the results.

Amino acid sequences for entries named in this document (tags omitted). Residues count along the entry.
UniProt Q96EB6, 2-747 limits assumed: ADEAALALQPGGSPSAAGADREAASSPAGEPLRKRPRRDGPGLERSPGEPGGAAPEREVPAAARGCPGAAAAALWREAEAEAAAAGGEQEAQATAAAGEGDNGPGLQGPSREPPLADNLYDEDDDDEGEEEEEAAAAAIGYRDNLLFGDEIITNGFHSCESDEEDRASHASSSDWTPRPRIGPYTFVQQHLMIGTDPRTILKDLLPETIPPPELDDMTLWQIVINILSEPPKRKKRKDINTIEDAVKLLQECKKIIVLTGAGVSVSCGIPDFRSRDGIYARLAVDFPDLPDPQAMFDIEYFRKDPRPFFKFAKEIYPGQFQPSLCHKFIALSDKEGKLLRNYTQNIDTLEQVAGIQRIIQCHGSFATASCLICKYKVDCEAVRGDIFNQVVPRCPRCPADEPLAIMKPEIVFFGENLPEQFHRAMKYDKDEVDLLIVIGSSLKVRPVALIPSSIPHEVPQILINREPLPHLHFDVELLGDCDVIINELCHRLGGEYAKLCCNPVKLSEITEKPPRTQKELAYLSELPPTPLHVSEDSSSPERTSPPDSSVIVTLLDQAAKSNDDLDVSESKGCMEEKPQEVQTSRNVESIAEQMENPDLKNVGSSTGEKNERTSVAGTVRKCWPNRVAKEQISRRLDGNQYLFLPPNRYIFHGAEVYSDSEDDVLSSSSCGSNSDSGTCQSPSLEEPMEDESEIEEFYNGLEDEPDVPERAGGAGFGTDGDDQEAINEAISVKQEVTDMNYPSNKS

These molecules were tested against NAD-dependent deacetylase Sirtuin 1 (human, UniProt Q96EB6) (assay: primary screen, delta tm). Details: 10 µM.
Parameters: single well (n = 1)
Outline: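 Thermal shift of Sirtuin 1 measured without NAD+, compound at 10 µM (n = 1); value is ΔTm, with hits defined as ΔTm > 0.45 K or < −1.5 K. Hits retested at 5, 10, 20 µM (n = 4) and counterscreened on bovine carbonic anhydrase and ABL1 SH2 domain.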

Structure (SMILES) | TSA(without NAD+) / Primary screening (TSA) / delta Tm (K)
Cc1ccc(C2C(C(=O)c3cc4ccccc4o3)=C(O)C(=O)N2CCCN2CCOCC2)cc1 (stereo not shown) | 0.02
CC1CC(C)CN(C(=O)COc2ccc3c4c(c(=O)oc3c2)CCC4)C1 (stereo not shown) | 0.03
Cc1cnc(C(=O)NC2CCCC(C)C2C)cn1 (stereo not shown) | 0.07
CCCC(C)(O)C(=O)O (stereo not shown) | -0.18
NC(=O)c1ccc(COC(=O)c2cc(C3CC3)nc3ccccc23)cc1 | -0.23
CCOC(=O)C1=C(COC(=O)c2sc3nc(C)cc(C)c3c2-n2cccc2)NC(=O)NC1 | -0.05
COCC(C)n1c(SCc2ccc(C(N)=O)cc2)nc2ccccc2c1=O (stereo not shown) | -0.12
COc1cc(CN(C)C(=O)c2ccc(-n3cnnn3)cc2)ccc1OCc1ccccc1 | -0.27
COc1ccc(C(=O)C2=C(O)C(=O)N(CCCN3CCOCC3)C2c2cccc(OC)c2)cc1 (stereo not shown) | -0.24
O=S(=O)(c1ccc(F)c(Cl)c1)N1CCNCC1 | -0.27
COc1cccc(C2C(C(=O)c3ccc4c(c3)OCCO4)=C(O)C(=O)N2CCCN2CCOCC2)c1 (stereo not shown) | 0.07
Cc1cccc(C(=O)OCc2ccc(C(=O)Nc3ccccc3)cc2)c1 | 0.06
O=C(NCc1ccccc1CS(=O)(=O)N1CCOCC1)C1=COCCO1 | -0.08
CCC(=O)CCCN1CCC(C(C)O)CC1 (stereo not shown) | -0.15
O=C1NC(=S)NC(=O)C1=Cc1cn(-c2ccccc2)nc1-c1cc2ccccc2o1 | 0.36
CS(=O)(=O)Cc1ccc(C(=O)NCC2(N3CCCCC3)CCCCC2)cc1 | -0.03
Cc1sc2nc(-c3cccnc3)nc(N3CCC(C(N)=O)CC3)c2c1C | 0.25
O=C(Nc1cccc(CNC(=O)N2CCC2)c1)c1ccccn1 | -0.07
COc1ccc(-c2nnc(S)o2)c(OC)c1 | -0.13
O=C(NC1CCCCC1O)c1cc2ccccc2[nH]1 (stereo not shown) | -0.04
Cc1cccc(NCCC#N)c1C | -0.32
C=CCNc1nnc(SCC(O)COC(c2ccccc2)c2ccccc2C)s1 (stereo not shown) | -0.18
Cc1sc(NC(=O)C2CCN(c3ncc(C(F)(F)F)cc3Cl)CC2)c(C(N)=O)c1C | 0.28
Cc1cc2cc(NC(=O)Cc3c(C)nc(-c4ccccn4)[nH]c3=O)ccc2[nH]1 | -0.12

Structure (SMILES) | TSA(without NAD+) / Primary screening (TSA) / delta Tm (K)
O=C1/C(=C/c2ccccc2[N+](=O)[O-])Oc2cc(O)ccc21 | -0.22
CCN(CC)C(=O)CN1CCCN(CC(=O)Nc2sccc2C(N)=O)CC1 | 0.07
COc1ccc(/C=C2/COc3ccc(Br)cc3C2=O)cc1OC(F)F | 0.18
CN(Cc1nc2ccccc2s1)C(=O)CSc1nnc(CC2CCS(=O)(=O)C2)o1 (stereo not shown) | -0.13
CC(C)C(O)CCN (stereo not shown) | -0.02
O=c1[nH]cnc2c1ncn2[C@H]1CC[C@@H](CO)O1 | -0.12
COc1cccc(/C=N/c2cccc(C(N)=O)c2)c1O | -0.23
Cc1ccc(C2C(C(=O)c3cc4ccccc4o3)=C(O)C(=O)N2CCCN2CCOCC2)o1 (stereo not shown) | 0.02
CC1CCN(c2ccc(NC(=O)N(C)Cc3cnccn3)cc2)C1 (stereo not shown) | -0.07
NC(=O)C1CCN(C(=O)c2cc3ccc(Br)cc3[nH]2)C1 (stereo not shown) | -0.04
O=C(CN1CCN(C(=O)c2ccccc2COc2ccccc2)CC1)Nc1ccccc1Cl | -0.13
CC1OC1P(=O)([O-])[O-] (stereo not shown) | -0.15
NC(=O)c1cc(NC(=O)CN2CC=C(c3ccc(O)cc3)CC2)cc(C(N)=O)c1 | 0.15
COc1ccc(C(=O)C2=C(O)C(=O)N(CCCN3CCOCC3)C2c2ccc(C)cc2)cc1 (stereo not shown) | -0.01
COc1ccccc1C(C)Nc1cc(=O)n2ccccc2n1 (stereo not shown) | 0.07
Cc1ccc(-c2nc(C(=O)NCCc3nnc4ccccn34)cs2)o1 | -0.03
O=C(Nc1cc(S(=O)(=O)N2CCOCC2)ccc1Oc1ccc(F)cc1)C1=COCCO1 | -0.12
CC1CCN(CCCNC(=O)C2=NN(c3ccc(F)cc3)C(C(N)=O)C2)CC1 (stereo not shown) | -0.07
CCC(N)C(=O)NC (stereo not shown) | -0.12
COc1ccc(C23CC4CC(CC(C(=O)NCc5ccc6c(c5)OCO6)(C4)C2)C3)cc1 | -0.11
Cc1nc(-c2cccnc2)nc(NCC(O)c2ccsc2)c1C (stereo not shown) | -0.02
COc1ccc(N(C)S(=O)(=O)c2cccc(C(=O)Nc3ccc4ccccc4c3)c2)cc1 | 0.82
O=C(CCSc1ncccn1)Nc1c(Cl)cccc1Cl | -0.04
Cc1c(F)cc(C(N)=O)cc1NC(=O)c1sc2nc(C3CC3)nc(C)c2c1C | 0.05

Structure (SMILES) | TSA(without NAD+) / Primary screening (TSA) / delta Tm (K)
c1ccc(N2CCN(c3cc(C4CC4)nc4ncnn34)CC2)cc1 | -0.15
COc1cc(CN(C)C(=O)Cn2[nH]c(=O)c3ccccc3c2=O)ccc1OCc1ccccc1 | -0.12
CCS(=O)CCNC(=O)c1nc2ccccc2c(=O)[nH]1 (stereo not shown) | -0.02
O=C(c1ccccc1)N1CCN(C(=O)c2cccc3ccccc23)CC1 | -0.07
Cc1ccccc1NC(=O)CN1CC=C(c2c[nH]c3ccccc23)CC1 | 0.19
CNC(=O)CCN(C)S(=O)(=O)c1cccc(Br)c1 | 0.07
CC1CN(C(=O)CC23CC4CC(CC(O)(C4)C2)C3)CC(c2ccccc2)O1 (stereo not shown) | -0.12
NCC(Cc1ccccn1)C(=O)O (stereo not shown) | 0.02
Cc1ccc(N(C)S(=O)(=O)c2cccc(C(=O)Nc3ccccc3Cl)c2)cc1 | 0.07
Cc1ccc(NC(=O)NCCc2cccc(O)c2)cc1NC(=O)NCCc1cccc(O)c1 | 0.38
CCC(CNC(=O)NCc1noc(C)n1)N1CCc2ccccc2C1 (stereo not shown) | -0.12
NC(=O)C1CCN(c2ncnc3sc4c(c23)CCCCC4)CC1 | 0.36
NC(=O)C1CCCN(C(=O)c2cc3c(Cl)c(Cl)ccc3[nH]2)C1 (stereo not shown) | -0.02
Cc1cn2c3c(=O)n(CCC(C)C)c(=O)n(C)c3nc2n1CCC(C)C | -0.17
Cc1ccc(C)c(NC(=O)COc2ccc3c4c(c(=O)oc3c2)CCC4)c1 | -0.01
O=C(CN1CCN(C(=O)CCc2c[nH]c3ccccc23)CC1)Nc1ccccc1 | -0.23
CC(=O)N1CCCc2cc(S(=O)(=O)Nc3cccc4ccccc34)ccc21 | -0.05
COc1cccc(NC(=O)c2cccc(S(=O)(=O)N(C)c3ccc(C)cc3)c2)c1 | -0.02
O=C(NC1CC1)C1CCCN1C(=O)c1n[nH]c2ccccc12 (stereo not shown) | -0.22
Cc1nc2cc(C(=O)Nc3ccc(NC(=O)N4CCCCCC4)cc3)ccc2n1C | -0.04
N#Cc1ccccc1S(=O)(=O)N1CCCC(c2cc(C(N)=O)[nH]n2)C1 (stereo not shown) | -0.22
Cc1ccc(N(C)S(=O)(=O)c2cccc(C(=O)Nc3ncc(C)s3)c2)cc1 | -0.12
CC(NC(=O)Cn1ccc(=O)c2ccccc21)C12CC3CC(CC(C3)C1)C2 (stereo not shown) | 0.05
O=C(NCCS(=O)(=O)N1CCc2ccccc21)Nc1ccn(Cc2ccccc2)n1 | 0.07

Not a retest: an excerpt of the list.
Structure (SMILES) | TSA(without NAD+) / Primary screening (TSA) / delta Tm (K)
NC(=O)c1cc(NC(=O)CN2CC=C(c3ccc(O)cc3)CC2)cc(C(N)=O)c1 | 0.15
COc1ccc(C(=O)C2=C(O)C(=O)N(CCCN3CCOCC3)C2c2ccc(C)cc2)cc1 (stereo not shown) | -0.01
COc1ccccc1C(C)Nc1cc(=O)n2ccccc2n1 (stereo not shown) | 0.07
Cc1ccc(-c2nc(C(=O)NCCc3nnc4ccccn34)cs2)o1 | -0.03
O=C(Nc1cc(S(=O)(=O)N2CCOCC2)ccc1Oc1ccc(F)cc1)C1=COCCO1 | -0.12
CC1CCN(CCCNC(=O)C2=NN(c3ccc(F)cc3)C(C(N)=O)C2)CC1 (stereo not shown) | -0.07

Following part.

Structure (SMILES) | TSA(without NAD+) / Primary screening (TSA) / delta Tm (K)
c1ccc(-n2ncc3c(N4CCCC4)ncnc32)cc1 | -0.12
CSc1nnnn1-c1cccc(NC(=O)NC(C)C2CCCO2)c1 (stereo not shown) | -0.17
CC(C)(C)CC(NCc1ccc(S(=O)(=O)CCO)cc1)C1CC1 (stereo not shown) | -0.01
c1ccc2c(c1)CCC/C2=N/Nc1nc2ccccc2[nH]1 | -0.08
CC(OC(=O)c1ccccc1NS(=O)(=O)c1ccc2c(c1)OCCO2)C(=O)NC(C)C1CC2CCC1C2 (stereo not shown) | -0.08
CC(C)(C)C(N)CN (stereo not shown) | -0.18
CCCNCC | -0.05
CCOc1cc(/C=N/NC(=O)c2cc3c(s2)CCCC3)ccc1OCC(=O)Nc1cccc(C(F)(F)F)c1 | 5.11
CC1CCc2c(sc3ncnc(N4CCCN(CC(N)=O)CC4)c23)C1 (stereo not shown) | -0.18
Cc1c(CCO)c(=O)n2c([nH]c3ccccc32)c1C#N | 0.07
COc1ccc(/C=C2/COc3ccc(Br)cc3C2=O)c(OC)c1OC | -0.15
O=C(O)C1CC(=O)N(c2ccc(S(=O)(=O)Nc3ccc(F)c(F)c3)cc2)C1 (stereo not shown) | 0.08
Cc1cccc(C2NC(=O)c3ccccc3N2C)c1 (stereo not shown) | -0.07
CCc1cc2c(N3CCCC(c4cc(C(N)=O)[nH]n4)C3)ncnc2s1 (stereo not shown) | 0.09
CC(C)CCCC(C)NC(=O)c1cc(-c2ccccc2)nc2c(C(N)=O)ncn12 (stereo not shown) | 0.12
CC1Oc2ccc(NC(=O)c3cccc(S(=O)(=O)N(C)c4ccccc4)c3)cc2NC1=O (stereo not shown) | -0.02
COc1ccccc1C(=O)NCC(=O)OCC(=O)Nc1ccc(C(N)=O)cc1 | -0.11
Sc1ncnc2c1oc1ccccc12 | -0.23
CCn1nc(C(=O)NC2CCCc3ccccc32)c2ccccc2c1=O (stereo not shown) | -0.44
NC(=O)COC(=O)CC1Sc2ccc(C(F)(F)F)cc2NC1=O (stereo not shown) | 0.02
OC(CNCCc1c[nH]c2ccccc12)c1ccccc1 (stereo not shown) | -0.23
N#C/C(=C/c1ccc(-c2cc(Cl)ccc2Cl)o1)C(=O)Nc1cccc2ncccc12 | -0.12
